In PubChem BioAssay AID651640 (Broad Institute, 2012):
Out of some 350,000 compounds screened, about 6,000 (1.7%) were called active. Inconclusive results, whose numbers are uncertain, are shown with a selection of clear calls. No stated cut-off is given here; in the data, active means CPE inhibition above about 20% (passing the limit was not always enough); inconclusive means no clear call, values can overlap the other calls; tested in BHK-21 cells.

Assay: protection of cells from dengue 2 killing – plate reader, single concentration, primary screen (AID 651640);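 further: 0% = median of neutral control wells and 100% = median of positive control wells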
Conditions: DENV2-infected cells, cytopathic effect rescue, at 9.99 µM, stronger effect = higher value

Row | Structure (SMILES) | CPE inhibition
1 | COc1cc2c3nnc(-c4ccc(F)cc4)c-3cn(Cc3cccc(C)c3)c2cc1OC | inactive: 5.37%
2 | C[C@H](CO)N1C[C@H](C)[C@H](CN(C)C(=O)Nc2ccc3c(c2)OCO3)Oc2ccc(NC(=O)Cc3cn(C)c4ccccc34)cc2CC1=O | inactive: -12.1%
3 | COCC(=O)N(C)C[C@H]1Oc2cc(-c3ccc(C)cc3)ccc2S(=O)(=O)N([C@@H](C)CO)C[C@@H]1C | inactive: -0.037%
4 | S=C(NCc1cccnc1)Nc1ccc(Oc2ccccc2)cc1 | inconclusive: 26.5%
5 | Cc1cc(NC(=O)c2csc([C@@H]3O[C@H](CO)[C@H](O)[C@H](O)[C@H]3O)n2)n(C)n1 | inconclusive: 29.8%
6 | CC(=O)c1cc(Cl)ccc1OCc1cccc(S(=O)(=O)N2CCOCC2)c1 | inconclusive: 20.2%
7 | CC(OC(=O)Cc1c[nH]c2ccccc12)C(=O)NC1(C#N)CCCCC1 (centres undefined) | inconclusive: 54.7%
8 | COc1ccc(-c2csc(NC(=O)CSCC(=O)Nc3cc(C)on3)n2)cc1OC | inconclusive: 37.1%
9 | C[C@H]1CN([C@@H](C)CO)S(=O)(=O)c2ccc(Br)cc2O[C@H]1CN(C)C(=O)c1cnccn1 | inconclusive: 57.9%
10 | CC(=O)NC(c1ccc(F)c(F)c1)c1nc(-c2cccs2)cs1 (centres undefined) | inconclusive: 48.5%
11 | C[C@H](CO)N1C[C@H](C)[C@@H](CN(C)C(=O)Nc2ccc(F)cc2)Oc2c(NC(=O)NC3CCCCC3)cccc2C1=O | inactive: -0.855%
12 | COCC#Cc1ccc2c(c1)O[C@H](CN(C)C(=O)CC1CC1)[C@@H](C)CN([C@@H](C)CO)S2(=O)=O | inconclusive: 27.5%
13 | CCN1CCN(C(=O)C(=O)c2cn(CC(=O)N3CCCC3)c3ccccc23)CC1 | inconclusive: 42.2%
14 | N=c1c(C(=O)NCCN2CCOCC2)cc2c(=O)n3ccccc3nc2n1CCCN1CCOCC1 | inactive: -4.94%
15 | O=C(Cc1cccc(NC(=O)C2CCCN(C(=O)C3CCCCC3)C2)c1)Nc1ccc(C(=O)N2CCOCC2)cc1 (centres undefined) | active: 23.7%
16 | Cc1cccc(OCC(=O)NCc2ccccc2)c1 | inconclusive: 26.5%
17 | O=C(Nc1cccc(S(=O)(=O)NC2=NCCCCC2)c1)c1cccnc1Cl | inconclusive: 20.2%
18 | Cc1cc(F)ccc1C(O)c1ncc(-c2ccccc2C(F)(F)F)[nH]1 (centres undefined) | active: 60%
19 | O=C(NN1C(=O)/C(=C/c2cccs2)SC1=S)c1ccncc1 | inactive: -1.98%
20 | C[C@@H]1CCCCO[C@H](CN(C)S(C)(=O)=O)[C@H](C)CN([C@@H](C)CO)C(=O)c2cc(NS(C)(=O)=O)ccc2O1 | inconclusive: 57.5%
21 | CO[C@H](CN(C)S(=O)(=O)c1ccc(C)cc1)[C@@H](C)CN(C(=O)Nc1ccccc1F)[C@H](C)CO | active: 30.5%
22 | CCOc1cc(C(=O)N2CCC(CC3CC(c4ccccc4)=NO3)(C(=O)NCc3ccc(OC)cc3)CC2)cc(OCC)c1OCC (centres undefined) | inconclusive: 24.2%
23 | C[C@H](O)C#Cc1ccc2c(c1)O[C@H](CN(C)C(=O)CN(C)C)[C@@H](C)CN([C@H](C)CO)S2(=O)=O | active: 23.9%

Row | Structure (SMILES) | CPE inhibition
24 | COCC#Cc1cnc2c(c1)C(=O)N([C@H](C)CO)C[C@H](C)[C@@H](CN(C)C(=O)Cc1ccncc1)O2 | inactive: 8.83%
25 | CCOc1ccc(Cn2cc(F)c(=O)[nH]c2=O)cc1 | inconclusive: 76.6%
26 | Cc1cc(Oc2cccnc2)ccc1NC(=O)Cc1c[nH]c2ccccc12 | inconclusive: 20.6%
27 | Cc1cccc(S(=O)(=O)N[C@@H]2CC[C@@H](CCn3cc(-c4ccccn4)nn3)O[C@@H]2CO)c1 | inactive: 5.79%
28 | COc1ccc(-c2cc(NC=O)c3ncc(-c4cccc(C(F)(F)F)c4)n3c2)c(OC)c1 | inconclusive: 78.3%
29 | COc1ccccc1S(=O)(=O)N[C@@H]1CC[C@@H](CCNC(=O)C2CC2)O[C@H]1CO | inactive: 2.04%
30 | COc1ccc2c3c(n(C)c2c1)[C@@H](CO)N(C(=O)C1CCOCC1)CC31CN(Cc2cccc(F)c2)C1 | inconclusive: 23.4%
31 | CC(=O)N1[C@H](CO)[C@H](c2ccc(-c3ccccc3)cc2)[C@H]1CNC(=O)C1CC1 | inconclusive: 43.2%
32 | C[C@H]1CN([C@@H](C)CO)C(=O)c2ccccc2-c2ccccc2CO[C@H]1CN(C)Cc1ccc2c(c1)OCO2 | inconclusive: 24.1%
33 | COc1ccccc1CNC(=O)C[C@H]1CC[C@H]2[C@@H](COC[C@H](O)CN2C(=O)Nc2ccc(F)cc2)O1 | inactive: 0.794%
34 | O=C(NCc1ccncc1)[C@@H]1CCCN1C(=O)[C@@H]1CCCN1C(=O)c1ccccc1Cl | inconclusive: 30.5%
35 | Cn1c(SCC(=O)NCC2CCCO2)ncc(C(=O)Nc2ccc(Cl)cc2)c1=O (centres undefined) | inconclusive: 36.6%
36 | COC(=O)[C@H]1C[C@@]2(O)CN(S(=O)(=O)c3ccc(C)cc3)C[C@@]2(OC(=O)NC2CCCC2)C[C@H]1C(=O)OC | inconclusive: 39.1%
37 | C[C@@H]1CN([C@@H](C)CO)C(=O)c2cc(N(C)C)ccc2O[C@H]1CN(C)S(=O)(=O)c1ccccc1 | active: 78.5%
38 | Cc1ccc(S(=O)(=O)Nc2ccc3c(c2)C(=O)N([C@H](C)CO)C[C@H](C)[C@H](CN(C)CC2CCCCC2)OCCCC[C@@H](C)O3)cc1 | inconclusive: 49.3%
39 | C[C@@H]1CN([C@@H](C)CO)C(=O)c2cc(NC(=O)Cc3ccccc3)ccc2O[C@@H](C)CCCCO[C@H]1CN(C)Cc1ccc(C(F)(F)F)cc1 | inactive: -18.5%
40 | O=C(NC1CCN(Cc2ccccc2)CC1)c1ccccc1Cl | inconclusive: 25.9%
41 | COc1ccc(NC(=O)c2ccc(OCC3CCCO3)cc2)cc1OC (centres undefined) | inactive: -0.049%
42 | CCC(=O)N1[C@H](CO)[C@@H]2c3ccccc3N(C(=O)c3ccc4c(c3)OCO4)C[C@@H]21 | inconclusive: 23.3%
43 | C[C@@H]1CN([C@@H](C)CO)C(=O)c2cc(NS(=O)(=O)c3ccc(F)cc3)ccc2O[C@@H]1CN(C)S(=O)(=O)c1cccs1 | active: 28%
44 | C[C@H](CO)N1C[C@H](C)[C@@H](CN(C)C(=O)C2CCCCC2)Oc2cc(C#Cc3ccncc3)ccc2S1(=O)=O | inconclusive: 44.6%
45 | O=C(NC1CCCCC1)N1CC(=O)N2[C@@H](CO)[C@H](c3ccc(-c4ccccc4)cc3)[C@@H]2C1 | inconclusive: 22.4%
46 | Cc1noc(C)c1NC(=O)Nc1ccc2c(c1)CC(=O)N([C@@H](C)CO)C[C@@H](C)[C@H](CN(C)Cc1ccc3c(c1)OCO3)O2 | inactive: -11.8%

A few values from the results shown.
Value of Cc1cc(NC(=O)c2csc([C@@H]3O[C@H](CO)[C@H](O)[C@H](O)[C@H]3O)n2)n(C)n1 under CPE inhibition: inconclusive: 29.8%
Value of O=C(Cc1cccc(NC(=O)C2CCCN(C(=O)C3CCCCC3)C2)c1)Nc1ccc(C(=O)N2CCOCC2)cc1 (centres undefined) under CPE inhibition: active: 23.7%
Value of O=C(NC1CCCCC1)N1CC(=O)N2[C@@H](CO)[C@H](c3ccc(-c4ccccc4)cc3)[C@@H]2C1 under CPE inhibition: inconclusive: 22.4%

(listing goes on)

Row | Structure (SMILES) | CPE inhibition
47 | C[C@@H]1CCCCO[C@@H](CN(C)Cc2ccc(Cl)c(Cl)c2)[C@H](C)CN([C@H](C)CO)C(=O)c2cc(NC(=O)CCC(F)(F)F)ccc2O1 | inactive: 7.58%
48 | CC(C)c1cn(CC[C@@H]2CC[C@H](NS(=O)(=O)c3ccc(F)cc3)[C@H](CO)O2)nn1 | inactive: -8.62%
49 | CN(C)CC#Cc1ccc([C@H]2[C@@H](CO)N(C(=O)C3CC3)[C@H]2C#N)cc1 | active: 32.5%
50 | Cc1ccc(Cl)cc1N1CCN(C(=O)CN(c2ccccc2)S(=O)(=O)N(C)C)CC1 | inconclusive: 23%
51 | Cc1ccccc1Nc1c(-c2ccncc2)nc2ccc(Cl)cn12 | inactive: -2.47%
52 | C/C=C/c1cccc(-c2nc(C(=O)N3CCCCC3)cc3c2[C@H](CCO)N(C(=O)NC(C)C)C3)c1 | inconclusive: 69.7%
53 | C[C@H]1CCCCO[C@@H](CN(C)C(=O)Nc2cccc3ccccc23)[C@@H](C)CN([C@@H](C)CO)C(=O)c2cc(NS(C)(=O)=O)ccc2O1 | inconclusive: 42.3%
54 | C=CCNC(=O)C1CC2Cn3c(nc4cc(C)c(C)cc43)C2N1C (centres undefined) | inconclusive: 29.2%
55 | C[C@@H]1CN([C@@H](C)CO)C(=O)c2cc(-c3ccc(C#N)cc3)cnc2O[C@H]1CN(C)Cc1ccccn1 | inconclusive: 33.4%
56 | COc1ccccc1CCC(=O)NNC(=O)c1ccncc1 | inconclusive: 35.7%
57 | CC(C)NC(=S)N1CCN(c2ncccn2)CC1 | inconclusive: 30.6%
58 | C=C1CCN([C@@H](C)C(=O)NCc2cc(OC)c(OC)c(OC)c2)S(=O)(=O)c2ccccc21 | inconclusive: 21.9%
59 | CCCC(=O)N1CCC2(CC1)CN(C(=O)Nc1c(C)noc1C)[C@@H](CO)c1c2c2ccc(OC)cc2n1C | inconclusive: 20.6%
60 | CO[C@H]1CN(C)C(=O)c2ccc(NS(C)(=O)=O)cc2OC[C@H](C)N(Cc2cccnc2)C[C@H]1C | inactive: 1.61%
61 | CC1CN(S(=O)(=O)c2cc(C(=O)NCCC3=CCCCC3)ccc2Cl)CC(C)O1 (centres undefined) | inactive: 6.7%
62 | C#CC(C)(C)NC(=O)c1cnc(-c2ccccc2)nc1-c1ccccc1 | inconclusive: 31.6%
63 | CCN(C(=O)COC(=O)CNC(=O)c1ccc(Cl)cc1Cl)c1c(N)n(Cc2ccccc2)c(=O)[nH]c1=O | inconclusive: 20.5%
64 | C/C=C/c1ccc([C@@H]2[C@@H](CO)N(C(=O)NCCC)[C@H]2CN(C)C(=O)CC)cc1 | active: 77.6%
65 | C[C@H]1CN([C@@H](C)CO)C(=O)c2cccc(NS(=O)(=O)c3cn(C)cn3)c2O[C@@H]1CN(C)C(=O)Nc1ccc2c(c1)OCO2 | inconclusive: 27.9%
66 | C[C@@H]1CN([C@@H](C)CO)S(=O)(=O)c2ccc(-c3cccc(F)c3)cc2O[C@H]1CN(C)C(=O)C1CC1 | inactive: -6.78%
67 | COc1cc(CC(C#N)(CO)c2nc3ccccc3[nH]2)ccc1OC(F)F (centres undefined) | active: 47.3%
68 | CN(C(=O)COC(=O)CN1C(=O)C2CC=CCC2C1=O)c1ccccc1 (centres undefined) | inconclusive: 71.2%
69 | C[C@@H](NC(=O)C[C@@H]1CC[C@H]2[C@@H](COC[C@H](O)CN2C)O1)c1ccccc1 | inconclusive: 23.4%
